Data as given in PubChem BioAssay AID652243 (Drosophila RNAi Screening Center, 2013)
Test: 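Fly regulators of androgen-dependent reporter output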 (primary screen). System: Drosophila S2R+ cells. Reagent: long dsRNA against Drosophila genes. Duration: 72 h (48 h, then 24 h hormone). Conditions: synthetic androgen R1881 at 10 nM for 24 h. Detection: 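Per-well raw luminescence of the androgen-driven firefly reporter and of the Renilla control, two replicates each, without normalisation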. Scale: firefly reporter light: higher = more light from androgen-responsive reporter; Renilla control light: higher = more constitutive control signal (cell number, transfection). Rule for the call: 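Across duplicate plates, a knock-down whose log firefly/Renilla ratio shifted a set fold down or up from the GFP/LacZ control mean was a hit; the downward cut appears as both 1.5 and 3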. Calls: active = hit: reporter lowered or raised; inactive = no hit.
In all, the deposit lists about 24,000 reagents; shown is a random part of those with a known target gene and a result. Of all reagents, 246 (1%) are marked active. 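Plates not normalised; calls are printed but the firefly/Renilla ratio behind them is not deposited; fold cut for lowering reported inconsistently.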 Raw values are not corrected between plates. Reagents against one gene are numbered here. Names joined by + are all predicted targets of the reagent. Not given: the amount of reagent.

Gene | dsRNA no. | firefly reporter light, replicate 1 | firefly reporter light, replicate 2 | Renilla control light, replicate 1 | Renilla control light, replicate 2 | Outcome
CG42699 | 1 | 41922 | 37313 | 7.12e5 | 3.00e5 | inactive
CG42699 | 2 | 1.32e5 | 1.22e5 | 3.76e6 | 3.02e6 | inactive
CG42699 | 3 | 6.28e5 | 8.91e5 | 8.37e5 | 1.05e6 | inactive
PPO2 | 1 | 9.12e5 | 4.18e5 | 1.36e6 | 8.17e5 | inactive
CG12576 | 1 | 2.35e5 | 1.43e5 | 5.34e5 | 4.93e5 | inactive
CG12576 | 2 | 2.85e5 | 3.85e5 | 3.00e5 | 5.78e5 | inactive
Elo68beta | 1 | 3.72e5 | 2.86e5 | 2.79e6 | 2.56e6 | inactive
CG40930 (retired record) | 1 | 5.89e5 | 5.69e5 | 1.50e6 | 1.73e6 | inactive
Rpp14b | 1 | 1.91e5 | 2.14e5 | 2.08e6 | 2.91e6 | inactive
CG2006 + Spase12 | 1 | 2.63e5 | 2.18e5 | 2.66e6 | 3.13e6 | inactive
CG15333 | 1 | 4.09e5 | 3.34e5 | 3.45e6 | 2.58e6 | inactive
CG15333 | 2 | 2.26e5 | 3.01e5 | 1.74e6 | 1.40e6 | inactive
goe | 1 | 5.16e5 | 3.49e5 | 3.71e6 | 2.91e6 | inactive
goe | 2 | 5.47e5 | 5.27e5 | 1.21e6 | 1.24e6 | inactive
CG15153 | 1 | 1.25e5 | 1.57e5 | 1.54e6 | 1.52e6 | inactive
CG15153 | 2 | 3.35e5 | 2.78e5 | 7.92e5 | 5.99e5 | inactive
Stam | 1 | 1.02e6 | 9.97e5 | 2.81e6 | 2.63e6 | inactive
Stam | 2 | 2.23e5 | 2.20e5 | 6.10e5 | 4.75e5 | inactive
Stam | 3 | – | – | – | – | inactive
Stam | 4 | – | – | – | – | inactive
Scp1 | 1 | 5.41e5 | 5.48e5 | 3.82e5 | 2.56e5 | inactive
Scp1 | 2 | 6.87e5 | 5.31e5 | 6.60e5 | 4.98e5 | inactive
Scp1 | 3 | 1.75e5 | 1.76e5 | 4.65e5 | 3.31e5 | inactive
CG14631 | 1 | 3.70e5 | 4.30e5 | 4.98e6 | 4.45e6 | inactive
CG14631 | 2 | 2.75e5 | 3.21e5 | 3.82e6 | 3.35e6 | inactive

Not a retest: entries from further up.
Gene | dsRNA no. | firefly reporter light, replicate 1 | firefly reporter light, replicate 2 | Renilla control light, replicate 1 | Renilla control light, replicate 2 | Outcome
goe | 1 | 5.16e5 | 3.49e5 | 3.71e6 | 2.91e6 | inactive
goe | 2 | 5.47e5 | 5.27e5 | 1.21e6 | 1.24e6 | inactive
CG15153 | 1 | 1.25e5 | 1.57e5 | 1.54e6 | 1.52e6 | inactive
CG15153 | 2 | 3.35e5 | 2.78e5 | 7.92e5 | 5.99e5 | inactive
